Measured data: PubChem BioAssay AID1671195 (Yale University, 2021)
Screen: 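Genes whose knockdown alters LDL uptake in liver cancer cells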 (primary screen). System: human Huh7 hepatoma cells. Reagent: siRNA pool against human genes, 18 nM. Time to read-out: about 2 to 2.5 days of knockdown, then 8 h LDL uptake. Challenge: DiI-labelled LDL at 30 µg/ml for 8 h, in lipoprotein-deficient serum medium. Measurement: 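Per-cell DiI-LDL intensity by automated imaging; well means scaled to the plate median and given as a robust z-score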. Direction: robust z-score: higher = more LDL uptake after knockdown. Rule for the call: 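a gene counts as active if at least two replicate z-scores exceed ±2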.
Here is an unselected part of about 22,000 deposited reagents. About 1,510 of them (6.9%) count as active. 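Active includes knockdowns raising or lowering LDL uptake; positive z-scores mean more uptake, negative mean less.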 Unmarked entries are inactive. No sequences are given here.

Depletion of RPS23 (ribosomal protein S23) gave: robust z-score, replicate 1 = -0.693; robust z-score, replicate 2 = 0.684; robust z-score, replicate 3 = -0.141.
Knock-down of NEDD8 (NEDD8 ubiquitin like modifier) gave: robust z-score, replicate 1 = -1.22; robust z-score, replicate 2 = 0.129; robust z-score, replicate 3 = -0.637.
Silencing of ZYG11B (zyg-11 family member B, cell cycle regulator) came out at: robust z-score, replicate 1 = 1.18; robust z-score, replicate 2 = 0.663; robust z-score, replicate 3 = 0.982.
Knock-down of MTG2 (mitochondrial ribosome associated GTPase 2) gave: robust z-score, replicate 1 = -2.13 (active); robust z-score, replicate 2 = -0.532; robust z-score, replicate 3 = -1.82.
Against ZNF26 (zinc finger protein 26), the values are robust z-score, replicate 1 = 0.35; robust z-score, replicate 2 = -0.0306; robust z-score, replicate 3 = 0.966.
Silencing of DEFB116 (defensin beta 116) gave: robust z-score, replicate 1 = -0.529; robust z-score, replicate 2 = -0.696; robust z-score, replicate 3 = -0.346.
Depletion of MIDN (midnolin) gave: robust z-score, replicate 1 = -0.753; robust z-score, replicate 2 = -0.496; robust z-score, replicate 3 = -0.318.
After knock-down of AARS1 (alanyl-tRNA synthetase 1) the results were robust z-score, replicate 1 = 0.266; robust z-score, replicate 2 = 0.505; robust z-score, replicate 3 = 0.654.
ADGRF5 (adhesion G protein-coupled receptor F5) gave robust z-score, replicate 1 = 0.0749; robust z-score, replicate 2 = 1.03; robust z-score, replicate 3 = 0.259.
Knock-down of ZFR (zinc finger RNA binding protein) gave: robust z-score, replicate 1 = 0.249; robust z-score, replicate 2 = -0.209; robust z-score, replicate 3 = 0.613.
After knock-down of NBN (nibrin), the screen gave robust z-score, replicate 1 = 1.29; robust z-score, replicate 2 = 1.34; robust z-score, replicate 3 = 0.967.
After knock-down of C1orf53 (chromosome 1 open reading frame 53), the screen gave robust z-score, replicate 1 = 0.503; robust z-score, replicate 2 = 0.318; robust z-score, replicate 3 = -0.126.
PNMA6A (PNMA family member 6A) scored robust z-score, replicate 1 = -0.347; robust z-score, replicate 2 = -0.112; robust z-score, replicate 3 = 0.035.
With knock-down of LINC02370 (long independently transcribed non-coding RNA 2370) the results were robust z-score, replicate 1 = -0.485; robust z-score, replicate 2 = -0.203; robust z-score, replicate 3 = -0.295.
For ACER3 (alkaline ceramidase 3) the deposit lists robust z-score, replicate 1 = 3.02 (active); robust z-score, replicate 2 = 2.66; robust z-score, replicate 3 = 2.71.
With knock-down of C1orf94 (chromosome 1 open reading frame 94), the record shows robust z-score, replicate 1 = 0.239; robust z-score, replicate 2 = -0.067; robust z-score, replicate 3 = 0.182.

Looked up above:
For “robust z-score, replicate 1”, RPS23 (ribosomal protein S23) has -0.693
For “robust z-score, replicate 2”, NBN (nibrin) is entered as 1.34
